Reference: article PMC3944740
Results are given in words; binding and its absence hold for the method and conditions named. In cells and extracts the contact can be indirect. Here binding means that the protein was enriched with, or labelled near, the bait; the list need not be complete. For part of these data: A no says only that the protein was not detected with the bait.

Sequences of proteins named here, by UniProt entry; tags and fusion partners are left off. A change or cut given only in a name is not applied to a line headed by its entry.
UniProt Q00646: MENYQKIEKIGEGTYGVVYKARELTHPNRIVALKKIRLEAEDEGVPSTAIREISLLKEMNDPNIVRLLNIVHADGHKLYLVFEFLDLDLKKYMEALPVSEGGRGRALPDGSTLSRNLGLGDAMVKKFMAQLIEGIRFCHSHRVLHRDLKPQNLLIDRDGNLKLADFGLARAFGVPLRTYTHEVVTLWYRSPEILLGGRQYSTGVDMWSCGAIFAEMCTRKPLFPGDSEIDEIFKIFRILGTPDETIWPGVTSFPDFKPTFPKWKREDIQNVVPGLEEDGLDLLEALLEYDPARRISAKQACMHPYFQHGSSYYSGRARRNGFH
UniProt Q5B6N5: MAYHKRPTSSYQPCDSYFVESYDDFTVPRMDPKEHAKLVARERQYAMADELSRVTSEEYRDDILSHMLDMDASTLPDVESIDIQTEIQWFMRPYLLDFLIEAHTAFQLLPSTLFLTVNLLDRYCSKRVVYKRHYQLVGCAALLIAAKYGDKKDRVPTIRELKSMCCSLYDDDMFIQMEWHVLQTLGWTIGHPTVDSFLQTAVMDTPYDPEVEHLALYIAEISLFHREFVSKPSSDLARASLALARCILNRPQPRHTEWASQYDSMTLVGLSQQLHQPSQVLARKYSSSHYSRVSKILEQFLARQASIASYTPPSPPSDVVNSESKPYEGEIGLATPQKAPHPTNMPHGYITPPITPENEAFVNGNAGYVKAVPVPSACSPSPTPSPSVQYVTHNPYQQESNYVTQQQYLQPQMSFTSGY

T1: SepH-DLAP (Aspergillus nidulans) (UniProt Q5B4Z3)
T1 sequence: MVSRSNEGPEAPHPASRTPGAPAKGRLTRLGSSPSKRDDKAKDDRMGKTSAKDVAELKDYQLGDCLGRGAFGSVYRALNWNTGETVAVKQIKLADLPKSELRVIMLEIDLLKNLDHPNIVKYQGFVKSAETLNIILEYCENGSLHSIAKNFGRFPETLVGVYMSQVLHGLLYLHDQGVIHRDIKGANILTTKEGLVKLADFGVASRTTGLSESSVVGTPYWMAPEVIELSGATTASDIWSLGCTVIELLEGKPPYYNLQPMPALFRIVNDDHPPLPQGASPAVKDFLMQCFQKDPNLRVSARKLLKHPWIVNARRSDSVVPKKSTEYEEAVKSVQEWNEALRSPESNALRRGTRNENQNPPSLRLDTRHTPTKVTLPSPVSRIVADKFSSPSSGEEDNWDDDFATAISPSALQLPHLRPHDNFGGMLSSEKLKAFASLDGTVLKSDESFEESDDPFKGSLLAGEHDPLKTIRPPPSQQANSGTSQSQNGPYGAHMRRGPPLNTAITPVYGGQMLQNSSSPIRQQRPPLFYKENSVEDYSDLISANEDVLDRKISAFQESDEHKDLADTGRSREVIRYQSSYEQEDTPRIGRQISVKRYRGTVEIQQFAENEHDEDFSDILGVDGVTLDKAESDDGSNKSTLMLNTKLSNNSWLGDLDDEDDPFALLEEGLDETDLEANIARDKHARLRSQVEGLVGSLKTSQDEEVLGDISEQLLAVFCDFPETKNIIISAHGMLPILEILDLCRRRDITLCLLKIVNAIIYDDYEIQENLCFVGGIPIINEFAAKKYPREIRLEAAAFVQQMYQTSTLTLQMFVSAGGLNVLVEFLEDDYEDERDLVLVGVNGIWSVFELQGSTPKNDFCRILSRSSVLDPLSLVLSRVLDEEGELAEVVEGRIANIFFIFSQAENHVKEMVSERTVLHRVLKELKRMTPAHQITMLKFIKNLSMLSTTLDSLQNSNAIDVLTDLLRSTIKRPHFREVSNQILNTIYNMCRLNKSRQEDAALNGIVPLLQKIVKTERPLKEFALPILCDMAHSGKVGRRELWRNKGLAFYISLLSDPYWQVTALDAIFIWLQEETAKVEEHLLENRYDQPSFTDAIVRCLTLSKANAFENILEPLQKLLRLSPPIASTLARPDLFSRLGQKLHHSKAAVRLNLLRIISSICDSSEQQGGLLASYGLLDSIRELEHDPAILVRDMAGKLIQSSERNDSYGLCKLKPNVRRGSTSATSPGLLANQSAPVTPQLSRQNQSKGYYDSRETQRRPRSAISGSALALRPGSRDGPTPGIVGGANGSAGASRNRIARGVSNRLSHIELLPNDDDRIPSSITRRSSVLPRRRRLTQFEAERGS

T2: CmkA-DLAP (Aspergillus nidulans) (UniProt Q00771)
T2 sequence: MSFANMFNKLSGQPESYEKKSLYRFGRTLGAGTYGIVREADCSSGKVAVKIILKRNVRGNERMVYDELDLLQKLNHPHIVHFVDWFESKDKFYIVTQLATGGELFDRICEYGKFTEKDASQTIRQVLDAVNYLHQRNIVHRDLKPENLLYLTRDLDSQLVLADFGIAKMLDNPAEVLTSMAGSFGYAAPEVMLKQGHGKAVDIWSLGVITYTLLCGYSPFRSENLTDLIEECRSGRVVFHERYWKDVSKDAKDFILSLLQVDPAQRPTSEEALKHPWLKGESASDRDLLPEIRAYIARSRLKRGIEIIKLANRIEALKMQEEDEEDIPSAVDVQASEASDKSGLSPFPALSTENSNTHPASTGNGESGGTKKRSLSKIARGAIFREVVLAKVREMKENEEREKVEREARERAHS


Assays:
Assay in all cases: affinity purification with mass spectrometry; endogenously DLAP tagged bait captured on S-protein agarose beads from lysates of lyophilized mycelia (conidiating static cultures, 28-32 hr), 15 min at 4° with protease inhibitors, extensive washing, eluted with SDS-PAGE sample buffer, single gel slice analysed by LC-MS/MS; compared with 9 other kinase purifications and a DLAP control
[1] = target: T1, SepH-DLAP (Aspergillus nidulans)
[2] = target: T2, CmkA-DLAP (Aspergillus nidulans)
[3] = target: NimX^Cdk1-DLAP (Aspergillus nidulans) (UniProt Q00646)

binding [1] | binding [2] | binding [3] | Molecule
no binding | no binding | – | MobB (AN1370) (Aspergillus nidulans (endogenous))
no binding | no binding | binds | PucA (AN3795) (from UniProt Q5B6N5)
– | – | binds | NimE^(Cyclin B) (AN3648) (protein, UniProt P30284 1-478) MNENDENGPSTRLTRAKAAALTTDAPAANGALKKPLQTKKAATGANGTQRKRAALGDVSNVGKADNGETKDAKKATSKTGLTSKATMQSGGVQKLSRSNLSRTAVGAKDNNVKKPATEAKRPGSGSGMGSAMKRTSSQKSLQEKTIQQEEPPRKKVDIEKVVEKQAEAVSVKGDVKAGAQTEELEKPQDFVADLDTEDLDDPLMAAEYVVEIFDYLRELEMETLPNPDYIDHQPDLEWKMRGILVDWLIEVHTRFRLLPETLFLAVNIIDRFLSAEVVALDRLQLVGVAAMFIASKYEEVLSPHVANFSHVADETFSDKEILDAERHILATLEYNMSYPNPMNFLRRISKADNYDIQTRTLGKYLMEISLLDHRFLGYPQSQIGAAAMYLARLILDRGPWDATLAHYAGYTEEEIDEVFRLMVDYLHRPVCHEAFFKKYASKKFLKASIMTRQWAKKYHHLYIDSALTEPYNSIKDNE
